# Read-outs that look alike come from different tables or passages of the source.
# Tested on: T. cruzi Tulahuen C2C4, containing the Lac Z gene
# Assay: In vitro sensitivity assay: T. cruzi (Lac Z / CPRG, in L-6 cells)
# Format: cell-based
# Conditions: Trypanosoma cruzi, L6
smiles,measurement,setting,value
"O=C(Cn1ccnc1[N+](=O)[O-])NCc1ccccc1 [benznidazole, Benznidazole]",IC50,"Tulahuen C4, amastigotes in L-6 cells, read-out: IC50 Values T. cruzi",0.407 µg/mL
same,IC50,"TULAHUEN, standard drug, protocol value, read-out: IC50",0.35 µg/mL
